At least one read-out could not be matched to a standard name with certainty.
Tested on: C. difficile strain NC 13366
Assay type: cell-based
Conditions: cultures treated at 1 and 8 µg/ml; day 5; concentration not specified; 7200 min

O=C(O)c1cn(C2CC2)c2cc(N3CCC(O)(COc4ccc(N5C[C@H](CO)OC5=O)cc4F)CC3)c(F)cc2c1=O [Example 1, 1-cyclopropyl-6-fluoro-7-{4-[2-fluoro-4-((R)-5-hydroxymethyl-2-oxo-oxazolidin-3-yl)-phenoxymethyl]-4-hydroxy-piperidin-1-yl}-4-oxo-1,4-dihydro-quinoline-3-carboxylic acid]
toxin B activities of the supernatants, reduction compared to the untreated control: > 90%
